Experimental data reported in PubChem BioAssay AID2551 (National Center for Advancing Translational Sciences (NCATS), 2010).
Screen size: about 310,000 compounds; about 17,000 (5.5%) were called active. The shares of active, inactive and inconclusive entries below differ from those in the screen. Calls follow the shape of the dose curve; as a rule, active = well fitted inhibition curve with a large enough effect; inconclusive = small, poorly fitted or top-dose-only effect, or effect the other way; inactive = no such curve, though single readings can be large or run the other way. Potencies beside an inconclusive call are fits to weak or partial responses and may not hold up.

Chains of the proteins cited; added tags and fusions are not shown. Lines headed by an entry give the natural chain unless they say otherwise; changes in a name come on top.
UniProt P51450: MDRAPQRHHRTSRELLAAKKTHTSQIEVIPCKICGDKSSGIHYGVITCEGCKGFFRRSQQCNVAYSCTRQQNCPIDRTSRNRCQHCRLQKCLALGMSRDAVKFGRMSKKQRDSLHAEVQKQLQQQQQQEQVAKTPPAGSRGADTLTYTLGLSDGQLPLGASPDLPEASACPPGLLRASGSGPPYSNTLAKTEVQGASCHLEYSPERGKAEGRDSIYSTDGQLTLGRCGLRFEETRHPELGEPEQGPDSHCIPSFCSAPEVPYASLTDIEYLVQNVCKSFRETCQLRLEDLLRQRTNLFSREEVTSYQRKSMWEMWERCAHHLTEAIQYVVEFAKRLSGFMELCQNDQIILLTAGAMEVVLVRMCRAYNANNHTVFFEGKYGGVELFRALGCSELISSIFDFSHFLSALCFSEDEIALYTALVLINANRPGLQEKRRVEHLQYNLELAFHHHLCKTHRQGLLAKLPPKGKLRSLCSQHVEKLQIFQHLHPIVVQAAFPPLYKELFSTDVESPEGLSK

molecular target: Nuclear receptor ROR-gamma (Mus musculus) (UniProt P51450); assay: qHTS for inhibitors of ROR gamma transcriptional activity; conditions: Drosophila S2 Gal4-RORgamma UAS-luciferase reporter, 20 h; activity change, negative = inhibition: at 53.6 µM (top of the series); also: nearly all actives have a fitted effect of over 60% in size
Procedure, shortened: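 Drosophila S2 cells stably expressing Gal4-DBD/mouse RORγ fusion under metallothionein promoter plus UAS-luciferase; compound 1 h, then 700 uM CuSO4 induction for 20 h at ambient temperature; inhibition read as reduced luminescence.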
% is scaled to controls: 0 for no effect and ±100 for the full control effect; potency is read from the fitted curve at half-maximal effect.

Activity change, negative = inhibition, inactive:
COc1ccccc1CNC(=O)C1CCCN(S(=O)(=O)c2cccs2)C1 (stereo unspecified) 19.4%
COC(=O)C1=CN(Cc2ccc(OC)cc2)C=C(C(=O)OC)C1c1ccsc1 18.3%
Clc1ccccc1-c1ncc(-c2ccccc2)o1 22.2% [at 1.91 µM]
COc1ccc([N+](=O)[O-])cc1N(CC(O)CN1CCOCC1)S(=O)(=O)c1ccccc1 (stereo unspecified) -28.4%
Cc1ccc(N2C(=O)Nc3ccccc3C2(O)C(=O)NCCCOC(C)C)cc1C (stereo unspecified) -27.4%
COc1cc(NC(=O)c2ccc3c(SCC(=O)O)c4c(nc3c2)CCC4)cc(OC)c1OC -4.39%
CN(C)C(=O)CSc1nc(SCC(=O)N(C)C)n(-c2ccccc2)n1 -12.9%
CC(C)(C)NC(=O)C(c1cccs1)N(Cc1ccc(F)cc1)C(=O)c1csnn1 (stereo unspecified) 24.9%
Cc1cc(C)c(NC(=O)Cn2nnc(C(=O)NCc3ccc4c(c3)OCO4)c2N)c(C)c1 -2.03%
CC(C)C(NC(=O)C(C)N1C(=O)c2ccccc2C1=O)c1ccccc1 (stereo unspecified) 29.2%
CC1CCCCC1NC(=O)C1CCC(CNS(=O)(=O)c2ccccc2)CC1 (stereo unspecified) 23.8%
COc1ccccc1CNS(=O)(=O)c1ccc(Br)s1 19.6%
CCOC(=O)c1sc2nc(CSc3ccccc3)nc(N3CCC(C(N)=O)CC3)c2c1C 39.2%
COc1ccc(C2CC(C(F)(F)F)n3nc(C(=O)Nc4ccc5c(c4)OCO5)cc3N2)cc1 (stereo unspecified) 16.7%
CCCCCNC(=O)c1cc(S(=O)(=O)N2CCCC2)ccc1F 6.47%
CCn1c(C)cc(O)c(C(=O)Nc2cccc(Cl)c2)c1=O 9.28%
CN(CC(=O)Nn1cnnc1)S(=O)(=O)c1ccccc1 8.48%
COc1cccc(CC2(CO)CCN(Cc3ccc4cccc(F)c4n3)CC2)c1 1.24%
CSCC[C@@H]1NC(=O)[C@@H](NC(=O)[C@H](CCCNC(=N)N)NC(=O)[C@H](CC(C)C)NC(=O)[C@H](CCSC)NC(=O)[C@H](CC(=O)O)NC(=O)[C@H](Cc2ccccc2)NC(=O)[C@@H](N)CC(=O)O)CSSC[C@@H](C(=O)N[C@@H](Cc2c[nH]c3ccccc23)C(=O)N[C@@H](CCC(N)=O)C(=O)N[C@H](C(=O)O)C(C)C)NC(=O)[C@@H]2CCCN2C(=O)[C@H](CCCNC(=N)N)NC(=O)[C@H](Cc2ccc(O)cc2)NC(=O)[C@H](C(C)C)NC(=O)[C@H](CCCNC(=N)N)NC(=O)CNC(=O)[C@H](CC(C)C)NC1=O 5.68%
CCOc1ccc(/C=N/NC(=O)c2cc3c(OC)cc(OC)c(OC)c3[nH]2)cc1 -34.3%

Potency, inconclusive:
CN1CCN(C2Cc3ccccc3Sc3ccc(S)cc32)CC1 (stereo unspecified) 14.1 µM [inhibitor, single point]
CCCc1sc(N)nc1-c1ccc(C)cc1 14.1 µM [inhibitor, single point]
COCCCC1CCN(C(=O)c2cc(COc3ccc(C)nc3)on2)CC1 11.2 µM [activator, partial curve]
O=C(CCCOc1ccc(Cl)cc1Cl)N/N=C\C1CCCCC1 35.5 µM [inhibitor, single point]
CCN(CCC#N)c1ccc(/C=N/Nc2nc(C)cc(=O)[nH]2)c(C)c1 11.2 µM [activator, partial curve]
O=C(Cn1cnc2sc3c(c2c1=O)CCCC3)NCC(=O)Nc1ccc(F)cc1F 12.6 µM [activator, partial curve]
CCCCS(=O)(=O)c1sc2nc3c(cc2c1N)CCCC3 10 µM [activator, partial curve]
CCc1ccccc1-n1c(SCC(=O)Nc2ccc3c(c2)OCCO3)nc2[nH]ncc2c1=O 15.8 µM [activator, single point]
Cc1ccc(-n2c(SCC(=O)Nc3ccc4c(c3)OCO4)nnc2-c2ccoc2C)cc1 35.5 µM [activator, single point]
COc1ccc(Nc2cccc(Cl)c2)c(C(=O)O)c1 3.55 µM [activator, full curve]
Cc1ccc(OCC(O)Cn2c(N3CCCCC3)nc3c2c(=O)[nH]c(=O)n3C)cc1C (stereo unspecified) 11.2 µM [activator, partial curve]
Nc1c(C(=O)Nc2ccc(Cl)c(C(=O)O)c2)sc2nc3c(cc12)CCCC3 35.5 µM [inhibitor, single point]
CC(=O)c1ccc(-n2nncc2-c2ccc([N+](=O)[O-])cc2)cc1 12.6 µM [activator, partial curve]
COC(=O)c1ccc(CSc2cc(C)c3ccccc3n2)o1 31.6 µM [inhibitor, single point]
CC1=CN2C(=N)/C(=C/c3ccc(Sc4ccc(Cl)cc4)o3)C(=O)N=C2S1 3.55 µM [inhibitor, full curve]
CCc1ccc(C2NC(=S)NC3=C2C(=O)CCC3)cc1 (stereo unspecified) 20 µM [inhibitor, single point]
c1ccc(CCC2CCCCN2Cc2nc(C3CC3)no2)cc1 (stereo unspecified) 12.6 µM [activator, single point]
COC(=O)c1ccccc1NC(=O)Cc1nc(-c2ccccc2)sc1-c1ccc(C)cc1 5.62 µM [activator, single point]
CC1=NN(c2ccccc2)C(=O)/C1=C\c1sccc1C 0.178 µM [activator, partial curve]
O=C(NCC1CCCO1)NC1CCCCC1 (stereo unspecified) 11.2 µM [inhibitor, partial curve, poor fit]
Nc1ccc(-c2nc3ncccc3o2)cc1 35.5 µM [inhibitor, single point]
CC1CCCN(C(=S)NCc2ccccc2)C1 (stereo unspecified) 17.8 µM [inhibitor, single point]
CN(C)c1ccc(Nc2nc(-c3cccnc3)cs2)cc1 0.0891 µM [activator, full curve, poor fit]
COc1ccc2[nH]cc(CCNS(=O)(=O)c3ccc(F)cc3)c2c1 28.2 µM [activator, partial curve]
CN(C)S(=O)(=O)c1ccc(Cl)c(C(=O)Nc2nc3ccccc3[nH]2)c1 35.5 µM [inhibitor, single point]
O=C(N/N=C/c1ccccc1)c1ccc(N2CCOCC2)c([N+](=O)[O-])c1 11.2 µM [inhibitor, single point]
CC(C)(C)n1ncc2c(=O)n(Cc3ccc(Cl)cc3Cl)cnc21 20 µM [activator, single point]
Cc1n[nH]c(=S)n1-c1ccccc1 0.0056 µM [inhibitor, full curve, poor fit]
O=C(Nc1ccc(NC(=O)C2CCCCC2)cn1)c1ccco1 7.94 µM [inhibitor, partial curve, poor fit]
NC(=O)c1ccc(C(F)(F)F)n(Cc2ccc(Cl)cc2)c1=O 35.5 µM [inhibitor, single point]
CC(=O)C1=C(c2ccccc2)OC(N)=C(C#N)C1c1ccccc1C (stereo unspecified) 11.2 µM [inhibitor, partial curve, poor fit]
O=C(O)c1ccc(NC(=O)c2cn(-c3ccccc3)nc2-c2ccc(Cl)cc2)cc1 11.2 µM [activator, partial curve]
CCOC(=O)C(CC)Sc1ncnc2nc[nH]c12 (stereo unspecified) 17.8 µM [activator, single point]
CCOC(=O)C1CCCN(C(=O)c2cc(Nc3ccc(OC)cc3)nc3ccccc23)C1 (stereo unspecified) 35.5 µM [activator, single point]
COc1ccc(/C(C#N)=C/c2c(-c3ccc(Cl)cc3)nc3c(C)cccn23)cc1 5.01 µM [inhibitor, full curve, poor fit]
Fc1ccccc1N=C1NN=C(c2ccccc2)CS1 35.5 µM [inhibitor, single point]
c1ccc(C2=NNC(=NCc3ccc4c(c3)OCO4)SC2)cc1 35.5 µM [inhibitor, single point]

An excerpt from above in order of length of the SMILES, ascending.
Potency, inconclusive:
O=C(NCC1CCCO1)NC1CCCCC1 (stereo unspecified) 11.2 µM [inhibitor, partial curve, poor fit]
CCCc1sc(N)nc1-c1ccc(C)cc1 14.1 µM [inhibitor, single point]
CC1CCCN(C(=S)NCc2ccccc2)C1 (stereo unspecified) 17.8 µM [inhibitor, single point]
Fc1ccccc1N=C1NN=C(c2ccccc2)CS1 35.5 µM [inhibitor, single point]
COc1ccc(Nc2cccc(Cl)c2)c(C(=O)O)c1 3.55 µM [activator, full curve]
CN(C)c1ccc(Nc2nc(-c3cccnc3)cs2)cc1 0.0891 µM [activator, full curve, poor fit]
CN1CCN(C2Cc3ccccc3Sc3ccc(S)cc32)CC1 (stereo unspecified) 14.1 µM [inhibitor, single point]
O=C(Nc1ccc(NC(=O)C2CCCCC2)cn1)c1ccco1 7.94 µM [inhibitor, partial curve, poor fit]
COc1ccc2[nH]cc(CCNS(=O)(=O)c3ccc(F)cc3)c2c1 28.2 µM [activator, partial curve]
CC(=O)c1ccc(-n2nncc2-c2ccc([N+](=O)[O-])cc2)cc1 12.6 µM [activator, partial curve]
Nc1c(C(=O)Nc2ccc(Cl)c(C(=O)O)c2)sc2nc3c(cc12)CCCC3 35.5 µM [inhibitor, single point]
O=C(N/N=C/c1ccccc1)c1ccc(N2CCOCC2)c([N+](=O)[O-])c1 11.2 µM [inhibitor, single point]
CCOC(=O)C1CCCN(C(=O)c2cc(Nc3ccc(OC)cc3)nc3ccccc23)C1 (stereo unspecified) 35.5 µM [activator, single point]
Cc1ccc(-n2c(SCC(=O)Nc3ccc4c(c3)OCO4)nnc2-c2ccoc2C)cc1 35.5 µM [activator, single point]
Cc1ccc(OCC(O)Cn2c(N3CCCCC3)nc3c2c(=O)[nH]c(=O)n3C)cc1C (stereo unspecified) 11.2 µM [activator, partial curve]
CCc1ccccc1-n1c(SCC(=O)Nc2ccc3c(c2)OCCO3)nc2[nH]ncc2c1=O 15.8 µM [activator, single point]

Following part:

Potency, active:
Cc1cccc2sc(NNC(=O)c3ccc(S(=O)(=O)N4CC(C)CC(C)C4)cc3)nc12 (stereo unspecified) 0.708 µM
Fc1cc(F)cc(NC(=S)NN2CCOCC2)c1 10 µM
COc1cc(OC)cc(C(=O)OC/C(O)=C(\C#N)c2nc3ccccc3[nH]2)c1 6.31 µM
CCC(=O)NC(=S)Nc1ccc(NC(=O)COc2ccc(Cl)cc2Cl)cc1 11.2 µM
CC(=O)/C(N=Nc1cc(C)ccc1O)=C(\C)O 3.16 µM
S=c1[nH]nc(C2CCCCC2)n1/N=C/C(Cl)=C\c1ccccc1 2 µM
O=C(CSc1nnc(CNc2ccc(Cl)cc2)o1)Nc1nc2c(s1)CCCC2 11.2 µM
COc1ccc(C(=O)Nc2ccccc2C(=O)N/N=C/c2ccccc2OC)cc1 15.8 µM
CC(C)(C)NS(=O)(=O)c1ccc(NC(=S)NC(=O)C2CCC2)cc1 17.8 µM
CC1=NN(C(=O)COc2ccccc2)C(O)(c2ccccc2)C1 (stereo unspecified) 6.31 µM
S=c1nc(NCCc2ccccc2Cl)c2ccccc2[nH]1 1.58 µM
O=C(CCl)c1cc2c3c(c1)CC(=O)N3CCC2 2 µM
O=C(O)CCCCCN1C(=O)/C(=C\c2ccncc2)SC1=S 12.6 µM
Cc1ccc(CSc2nnc(SCC(=O)N/N=C/c3ccc(C(=O)O)cc3)s2)cc1 5.62 µM
